# Results: patent US8546380B2, “Aminodihydrothiazine derivatives” (Shionogi & Co., Ltd., priority 2005, dated 2013)
# The chains behind the UniProt entries cited, without tags or fusion partners. Residues count along the entry.
# UniProt P56817, 46-501: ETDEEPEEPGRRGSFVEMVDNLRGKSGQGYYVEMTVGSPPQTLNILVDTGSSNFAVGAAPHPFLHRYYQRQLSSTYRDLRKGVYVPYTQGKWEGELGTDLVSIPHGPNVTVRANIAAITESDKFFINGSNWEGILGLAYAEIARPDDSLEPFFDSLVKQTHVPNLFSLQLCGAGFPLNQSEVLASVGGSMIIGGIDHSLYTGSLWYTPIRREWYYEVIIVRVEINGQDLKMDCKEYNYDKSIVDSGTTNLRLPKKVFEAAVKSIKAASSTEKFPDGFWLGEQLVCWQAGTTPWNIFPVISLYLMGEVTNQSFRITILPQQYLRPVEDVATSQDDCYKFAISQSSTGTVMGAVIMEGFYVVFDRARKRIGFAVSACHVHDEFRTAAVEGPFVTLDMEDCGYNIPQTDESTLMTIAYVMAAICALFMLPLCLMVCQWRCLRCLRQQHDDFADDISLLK
# Target: recombinant human BACE-1 protein (Homo sapiens (Human), UniProt P56817)
# Experiment: Measurement of Inhibition of β-Secretase Activity
# Assay type: biochemical
# Settings: 3 h at 30° C., pH5.0
# Method: Zero point five μL of the test compounds (dissolved in N,N′-dimethylsulfoxide) were incubated with 48.5 μL of the fluorescence-quenched peptide substrate solution (Biotin-XSEVNLDAEFRHDSGC-Eu:X=ε-amino-n-capronic acid, Eu=Europium cryptate) and 1 μL of recombinant human BACE-1 protein (R&D systems) for 3 h at 30° C. in the 96 well half-area plate (black color plate, Costar). The substrate peptide was synthesized by reacting with Biotin-XSEVNLDAEFRHDSGC (Peptide Institute) and Cryptate TBPCOOH mono SMP (CIS bio international). […] The enzymatic reaction was performed in sodium acetate buffer (50 mM sodium acetate (pH5.0), 0.008% Triton X-100). After the reaction, a 50 μL of 8.0 μg/mL Streptavidin-XL665 (CIS bio international) dissolved in phosphate buffer (150 mM K2HPO4—KH2PO4 (pH 7.0), 0.008% Triton X-100, 0.8 M KF) was add to each well and incubated for 1 h at 30° C.
row,Structure (SMILES),IC50
1,CC1(c2cccc(NC(=O)c3ccc(F)cn3)c2)CCSC(N)=N1 (centres unmarked) [Compound 212],220 nM
2,COCc1cc(NC(=O)c2ccc(Cl)cn2)cc(C2(C)CCSC(N)=N2)c1.Cl (centres unmarked) [Compound 284],229 nM
